Results taken from PubChem BioAssay AID485353 (National Center for Advancing Translational Sciences (NCATS), 2010).
In all, about 330,000 compounds went through this assay and about 610 (0.18%) were called active. Inconclusive results, whose numbers are uncertain, are shown with a selection of clear calls. Calls follow the shape of the full dose curve. A potency beside an inconclusive call is a rough fit, not a confirmed value.

assay: qHTS of Yeast-based Assay for SARS-CoV PLP; also: nearly all actives have a fitted effect of over 55% in size; as to activity, positive = growth rescue: 0% is about no effect; settings: S. cerevisiae expressing SARS-CoV PLpro; Potency: growth rescue; activity, positive = growth rescue: at 32.9 µM (top of the series)
Potency is read from the fitted curve at half-maximal effect.

| Compound | Potency | activity, positive = growth rescue |
| --- | --- | --- |
| O=C1C=C(N(CCO)CCO)C2(CCCCC2)O1 | inconclusive: 20 µM [activator, single point] | – |
| O=C1C(Nc2ccccc2)=C(N2CCCCC2)C(=O)c2ccccc21 | – | inactive: 2.58% |
| Cc1ccc2c(c1)NC(=O)C(CC(=O)NCCCN1CCN(c3cc(Cl)ccc3C)CC1)O2 (stereo not drawn) | inconclusive: 0.631 µM [activator, full curve] | – |
| Cc1ccc(C)c(CN2CCCN(Cc3cc(C)ccc3C)S2(=O)=O)c1 | – | inactive: -0.264% |
| CC1CC(C)(C)NC(=S)N1CC(=O)N(C)Cc1ccccc1 (stereo not drawn) | inconclusive: 4.47 µM [activator, single point] | – |
| CC(C)(C)C(=O)NC(=S)Nc1ccccc1C(=O)NC1CCCCC1 | – | inactive: -0.0153% |
| CC(C)Cn1nc(NS(=O)(=O)c2cccc3nonc23)c2cc3ccccc3nc21 | inconclusive: 3.16 µM [activator, single point] | – |
| O=C(CCN1CCN(c2ccccc2)CC1)N/N=C/c1ccccc1O | inconclusive: 3.55 µM [activator, single point] | – |
| CN1CCN(S(=O)(=O)c2ccc(Cl)cc2)CC1 | – | inactive: 3.68% |
| CCOc1ccc(NC(=O)c2ccccc2OC)cc1 | inconclusive: 2.82 µM [activator, single point] | – |
| CN1CC(=O)N(CC(=O)N2N=C(c3ccc(Cl)cc3)CC2c2ccco2)C1=O (stereo not drawn) | – | inactive: 1.4% |
| O=C(/C=C/c1ccccc1Cl)N1CCCN(C(=O)/C=C/c2ccccc2Cl)CC1 | inconclusive: 10 µM [activator, partial curve, poor fit] | – |
| Cc1ccc(NC(=O)Cn2ncn3c(cc4ccccc43)c2=O)c(C)c1 | inconclusive: 20 µM [activator, single point] | – |
| Clc1cccc2c3c([nH]c12)CCNC3 | – | inactive: 6.13% |
| Cn1nc(C(=O)Nc2ccccc2N2CCCC2)c2ccccc2c1=O | – | inactive: -0.757% |
| CCOC(=O)Cc1csc(NS(=O)(=O)c2ccc([N+](=O)[O-])cc2)n1 | – | inactive: 6.78% |
| Cc1ccc(NC(=O)CCNS(=O)(=O)c2cc(Br)cnc2N)cc1Cl | inconclusive: 22.4 µM [activator, single point] | – |
| O=S(=O)(NCCSc1nnc(-c2ccco2)n1-c1ccccc1)c1ccccc1 | – | inactive: -1.27% |
| O=C(NNC(=O)C12CC3CC(CC(C3)C1)C2)c1ccccc1O | inconclusive: 3.55 µM [activator, partial curve] | – |
| O=C(Cn1cnc2ccccc21)N/N=C/c1ccco1 | inconclusive: 1 µM [activator, full curve, poor fit] | – |
| O=C(O)c1cccc(NC(=S)N/N=C/c2ccccn2)c1 | active: 5.01 µM | – |
| CNC(=S)SCCOc1ccccc1C | inconclusive: 10 µM [activator, single point] | – |
| CCCOc1ccc(N2CC(C(=O)Nc3ccccc3F)CC2=O)cc1 (stereo not drawn) | inconclusive: 3.55 µM [activator, full curve, poor fit] | – |
| COc1ccc(S(=O)(=O)N2CCN(CC(=O)Nc3cccc(OC)c3)CC2)cc1 | inconclusive: 20 µM [activator, single point] | – |

| Compound | Potency | activity, positive = growth rescue |
| --- | --- | --- |
| CCN(CC)c1ccc2cc(-c3nc4ccccc4[nH]3)c(=O)oc2c1 | – | inactive: -2.44% |
| Cc1nn(C)cc1/C=N/NC(=S)Nc1ccc(Cl)cc1Cl | inconclusive: 12.6 µM [activator, single point] | – |
| CN(C(=O)CSc1nnc(-c2n[nH]c3ccccc23)o1)c1ccccc1 | inconclusive: 22.4 µM [activator, partial curve] | – |
| CCOC(=O)Cn1nc(NC(=O)c2ccc(C(=O)OC)cc2)cc1C | inconclusive: 0.891 µM [activator, full curve, poor fit] | – |
| COc1ccc(NC2SC(=O)N(C)C2=O)cc1 (stereo not drawn) | inconclusive: 12.6 µM [activator, single point] | – |
| O=C(N/N=C/c1ccc[nH]1)c1cc(-c2ccc(Cl)cc2)nc2ccccc12 | – | inactive: -2.27% |
| Cc1ccc(C)c(N(CC(=O)NC2CCCC2)S(=O)(=O)c2ccccc2)c1 | inconclusive: 4.47 µM [activator, partial curve] | – |
| O=C(COc1ccccc1F)Nc1nc(-c2ccccn2)cs1 | inconclusive: 3.98 µM [activator, single point] | – |
| CCCSc1nc2[nH]ncc2c(=O)[nH]1 | inconclusive: 3.16 µM [activator, single point] | – |
| O=C(N/N=C/c1sc2ccccc2c1O)c1cccc2ccccc12 | active: 2.82 µM | – |
| COC(=O)c1ccc(Cl)c(NC(=O)CN2CCC(C)CC2)c1 | inconclusive: 28.2 µM [activator, partial curve, poor fit] | – |
| O=C1CNC(=S)N1CCc1ccccc1Cl | – | inactive: 1.57% |
| Cc1ncc(C23CC4CC(CC(C4)C2)C3)[nH]1 | active: 12.6 µM | – |
| COc1ccc(Oc2coc3c(CN(C)C)c(O)ccc3c2=O)cc1 | – | inactive: -7.79% |
| CC(=O)N(c1ccccc1)C(C)c1nc(C#N)c(C#N)nc1C (stereo not drawn) | inconclusive: 0.398 µM [activator, partial curve, poor fit] | – |
| O=C(CN1CCC(Cc2ccccc2)CC1)NC(=O)NCc1ccco1 | inconclusive: 4.47 µM [activator, single point] | – |
| CCCCc1cc2c(c(NC(C)=O)n1)c(=O)oc1ccccc12 | inconclusive: 1.26 µM [activator, partial curve, poor fit] | – |
| O=C(/C=C/c1ccco1)Nc1nc(-c2ccc(F)c(F)c2)cs1 | – | inactive: -0.0433% |
| O=C(O)c1cc2c(cn1)[nH]c1ccccc12 | – | inactive: -1.11% |
| Cc1ccc(S(=O)(=O)N2CC(O)CC2C(=O)OCc2nc3sc(C)c(C)c3c(=O)[nH]2)cc1 (stereo not drawn) | inconclusive: 4.47 µM [activator, single point] | – |
| Cc1cc(Br)ccc1NC(=O)CN(C)C(=O)C1CCN(C(=O)c2ccc(F)cc2)CC1 | inconclusive: 20 µM [activator, single point] | – |
| COc1ccccc1Nc1nc(N)nc(CSC(=S)N2CCC(C)CC2)n1 | active: 15.8 µM | – |
| CCOC(=O)/C(C#N)=C\c1ccc(N2CCN(C)CC2)cc1 | – | inactive: 5.92% |
| O=C(O)CCCNC(=O)C(c1ccccc1)c1ccccc1 | inconclusive: 2.82 µM [activator, partial curve] | – |

Entries of single compounds, quoted from the list:
O=C(N/N=C/c1sc2ccccc2c1O)c1cccc2ccccc12 is entered as Potency: active: 2.82 µM
Cc1ccc(NC(=O)Cn2ncn3c(cc4ccccc43)c2=O)c(C)c1 is entered as Potency: inconclusive: 20 µM [activator, single point]
